# According to patent US20060292560:
# Molecular target: p53 (Homo sapiens) (UniProt P04637)
# Assay: activity in cells
# Conditions: luciferase reporter induced by p53 cotransfection in HeLa; fold value not in the text provided; protein in cells; only the site is given
row,Sequence,activity on this sequence
1,"CTTCCCTCATCCTCCAGCAGGCTAGCTCGGGCTTGGTCACCTGACAGGGG (double strand) [Sequence A (chromosome 17, AC005562)]",active
2,"CAAGAAGGGGACTCGGCTTGTCTGAACTAGCATAAGGAAGTCCC (double strand) [Sequence B (BAC RPII-557N21, AC009242)]",active

# For at least one entry, the source does not settle the construct or the ends of the probe.
